Data from publication doi:10.1101/817213.
These are yes or no findings as the source states them, for the method shown. Binding seen in cells or lysates may run through a third protein. A result given as binding can be weak or reduced; the word gives no strength. Sequences can lack the tags named with a protein.

Molecular target: 3xHA-TOGARAM1 (human)
Assay: co-IP

binding: binds
B1: mouse ARMC9-3xFlag (protein, UniProt Q9D2I5 1-817)
chain: MGDILAHESELLGLVKEYLDFAEFEDTLKTFSKECKVKGKPLCKNVGGPLKKDSKSLVIQRDLVAAFDSGDQKAFFDLWEGHIPSSVRDTDSLAQKLEFYLHIHFAIYLLKYCRGRPDKQELDKRISYFKTYLETKGAALSQTTEFLPFYALPFVPNPMVHPSFKELFQDSWTPELKLKLEKFLALTFKANNTPKLLTIYKENGPNSKELLQQLHQQLVEAERRAMTYLKRYNKIQADYHNLIGVTAELVDSLEATVSGKMITPEYLQSVCVRLFSNQMRQSLAHSVDFTRPGTASTMLRASLAPEKLKDVPLLPSLDYEKLKKDLIWGSDRLKAFLLQALRWRLTTSHPGEQRETVLQAYISNDLLDCHSHNQRSVLQLLHSKSEAVRQYMARLINALASLAEGRLYLAQNTKVLRMLEGRLKEEDKDVITRENVLGALQKFSLRRPLQTAMIRDGLIFWLIDLLKDPDCLSDYTLEYSVALLMNLCLRSAGKNMCAKVAGLMLKVLSDLLGHENHEIQPYVNGALYSILSIPSIREEARAMGMEDILRCFIKEGNAEMIRQIEFIIKQLNSEDLLDGVLESDDDEDEDDEEDHDIMEADLDKDELIQPQLGELSGEKLLTTEYLGIMTNTGKARRKGPASVQWSGDEPLRRPVTPGGHRTGCPVLGDHLISPQNAQQARNGCLRAMPVAHPDDYKEGKPGVTGCGTSSSFMDHKPREWSPAGHQKSRLVPTAALGWPREMTQDPSSGHITREFVPAFTCKPQVPSTPETVEQNPLKAKALSLAPQFSSSGPQQASRPASTASSTRGLHSSQSIRK
